# Experimental data published in publication doi:10.1101/2019.12.16.876623 (bioRxiv, 2019).
# Results are given in words; binding and its absence hold for the method and conditions named. In cells and extracts the contact can be indirect. Here binding means that the protein was enriched with, or labelled near, the bait; the list need not be complete. Sequences can lack the tags named with a protein.
# T1: Mlh3-Flag (Mlh3 with an internal His6-Flag3 tag) (S. cerevisiae) (UniProt Q12083)
# T1 sequence: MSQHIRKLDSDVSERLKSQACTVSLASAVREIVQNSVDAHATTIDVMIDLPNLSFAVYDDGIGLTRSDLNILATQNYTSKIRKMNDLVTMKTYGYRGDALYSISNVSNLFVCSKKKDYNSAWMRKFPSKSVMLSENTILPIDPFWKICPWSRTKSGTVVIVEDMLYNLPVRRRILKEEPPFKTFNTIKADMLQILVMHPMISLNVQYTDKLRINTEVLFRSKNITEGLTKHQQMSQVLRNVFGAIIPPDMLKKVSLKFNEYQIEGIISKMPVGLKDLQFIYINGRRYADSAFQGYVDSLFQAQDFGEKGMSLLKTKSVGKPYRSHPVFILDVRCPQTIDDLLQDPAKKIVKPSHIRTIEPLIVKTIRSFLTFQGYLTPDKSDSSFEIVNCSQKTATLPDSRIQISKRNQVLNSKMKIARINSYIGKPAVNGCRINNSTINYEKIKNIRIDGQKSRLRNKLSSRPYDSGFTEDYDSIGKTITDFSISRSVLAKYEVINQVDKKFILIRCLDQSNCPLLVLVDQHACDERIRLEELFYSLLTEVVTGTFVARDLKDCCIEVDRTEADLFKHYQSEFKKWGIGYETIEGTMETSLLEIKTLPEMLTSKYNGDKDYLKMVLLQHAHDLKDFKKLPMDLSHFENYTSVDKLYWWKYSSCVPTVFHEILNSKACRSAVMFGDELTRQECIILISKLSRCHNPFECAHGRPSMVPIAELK
# Molecular target: T1, Mlh3-Flag (Mlh3 with an internal His6-Flag3 tag) (S. cerevisiae)
# Assay: affinity purification with mass spectrometry
binder,measurement,value
"Pms1 (found by mass spectrometry in the Mlh3-Flag pull-down) (protein, UniProt P14242 1-873) MTQIHQINDIDVHRITSGQVITDLTTAVKELVDNSIDANANQIEIIFKDYGLESIECSDNGDGIDPSNYEFLALKHYTSKIAKFQDVAKVQTLGFRGEALSSLCGIAKLSVITTTSPPKADKLEYDMVGHITSKTTTSRNKGTTVLVSQLFHNLPVRQKEFSKTFKRQFTKCLTVIQGYAIINAAIKFSVWNITPKGKKNLILSTMRNSSMRKNISSVFGAGGMRGLEEVDLVLDLNPFKNRMLGKYTDDPDFLDLDYKIRVKGYISQNSFGCGRNSKDRQFIYVNKRPVEYSTLLKCCNEVYKTFNNVQFPAVFLNLELPMSLIDVNVTPDKRVILLHNERAVIDIFKTTLSDYYNRQELALPKRMCSQSEQQAQKRLKTEVFDDRSTTHESDNENYHTARSESNQSNHAHFNSTTGVIDKSNGTELTSVMDGNYTNVTDVIGSECEVSVDSSVVLDEGNSSTPTKKLPSIKTDSQNLSDLNLNNFSNPEFQNITSPDKARSLEKVVEEPVYFDIDGEKFQEKAVLSQADGLVFVDNECHEHTNDCCHQERRGSTDTEQDDEADSIYAEIEPVEINVRTPLKNSRKSISKDNYRSLSDGLTHRKFEDEILEYNLSTKNFKEISKNGKQMSSIISKRKSEAQENIIKNKDELEDFEQGEKYLTLTVSKNDFKKMEVVGQFNLGFIIVTRKVDNKYDLFIVDQHASDEKYNFETLQAVTVFKSQKLIIPQPVELSVIDELVVLDNLPVFEKNGFKLKIDEEEEFGSRVKLLSLPTSKQTLFDLGDFNELIHLIKEDGGLRRDNIRCSKIRSMFAMRACRSSIMIGKPLNKKTMTRVVHNLSELDKPWNCPHGRPTMRHLMELRDWSSFSKDYEI",binding,binds
